Assay results: PubChem BioAssay AID504834 (National Center for Advancing Translational Sciences (NCATS), 2011)
The whole screen tested about 320,000 compounds, of which about 22,000 (6.9%) were called active. Inconclusive means that the source gave no clear call. Such entries were picked first, then a sample of the others. The call rests on the fitted dose curve; in most records, active means well fitted inhibition curve with a large enough effect; inconclusive means small, poorly fitted or top-dose-only effect, or another doubt; inactive means no such curve, though single readings can be large or run the other way. Potencies beside an inconclusive call are fits to weak or partial responses and may not hold up.

Experiment: Primary qHTS for delayed death inhibitors of the malarial parasite plastid, 96 hour incubation
Conditions: P. falciparum luciferase reporter growth; series mostly up to 28.7 µM
In short: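 P. falciparum expressing integrated firefly luciferase, in erythrocytes at 2% hematocrit, 0.05% parasitemia, incubated with compounds 96 h at 37 C, 5% CO2. Growth inhibition read as loss of luminescence; two-generation exposure targets delayed-death apicoplast inhibitors.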
Potency means the concentration at half of the fitted maximal effect.

Row | Structure (SMILES) | Potency
1 | CCCc1nnc(NC(=O)CCC(=O)NCc2ccc(OC)cc2)s1 | inactive
2 | COc1ccccc1Nc1nc(-c2sc(NC(=O)c3cccc(Cl)c3)nc2C)cs1 | active: 9.28 µM
3 | CCOC(=O)c1nnn(CC(=O)Nc2ccccc2)c1C(=O)OCC | inconclusive: 13.1 µM [inhibitor, single point]
4 | O=[N+]([O-])c1ccc(C[n+]2cc(-c3ccccc3)n3c2CCCCC3)cc1 | inactive
5 | CCOC(=O)C1CCCN(CCC(=O)Nc2ccc(Br)cc2)C1 (stereo not drawn) | inconclusive: 10.4 µM [inhibitor, single point]
6 | COc1cc(/C=N/NC(=O)C23CC4CC(CC(C4)C2)C3)cc(Br)c1O | inactive
7 | Cc1ccc(/C=N/NC(=O)Cc2cccn2C)s1 | inactive
8 | COc1ccc(CC(=O)N2N=C(C)CC2(O)C(F)(F)F)cc1OC (stereo not drawn) | inconclusive: 4.15 µM [inhibitor, single point]
9 | O=Cc1ccccc1-n1cccn1 | inactive
10 | Cc1ccc(Cl)cc1Nc1nc(-c2sc(NC(=O)c3ccco3)nc2C)cs1 | active: 9.28 µM
11 | CCc1ccc(/C=C2\SC(=S)N(CCC(=O)Nc3cc(C)on3)C2=O)cc1 | inactive
12 | COCCNC(=O)CSc1nnc(CCCN2C(=O)c3cccc4cccc(c34)C2=O)n1-c1ccccc1 | inactive
13 | O=C(Nc1c(-c2cccs2)nc2ccccn12)c1ccccc1F | inactive
14 | COc1ccc(N(C(C)=O)c2nc3ccccc3[nH]2)cc1 | inconclusive: 18.5 µM [inhibitor, single point]
15 | Clc1ccc(-c2noc3c2-c2nc(Cc4cccc5ccccc45)sc2CC3)cc1 | inconclusive: 18.5 µM [inhibitor, single point]
16 | Cc1c(C(=O)N2CCN(C3CCS(=O)(=O)C3)CC2)oc2c(F)cccc12 (stereo not drawn) | inconclusive: 0.0026 µM [inhibitor, full curve, poor fit]
17 | CCOc1ccc(OCCSc2nnnn2C2CCCCC2)cc1 | active: 10.4 µM
18 | Cc1cc(CNC(=O)CC2C(=O)NCCN2Cc2ccccc2C(F)(F)F)on1 (stereo not drawn) | inactive
19 | S=c1[nH]nc(COc2ccc(Cl)cc2Cl)n1-c1ccccc1 | inconclusive: 3.7 µM [inhibitor, partial curve]
20 | COC(=O)C1=C(c2ccc(F)cc2OCc2ccccc2)C[C@@H]2CC[C@H]1N2C(=O)NCCOc1ccccc1 | inconclusive: 1.47 µM [inhibitor, full curve]
21 | COc1cccc(C(=O)Nc2cccc3ccccc23)c1OC | inconclusive: 13.1 µM [inhibitor, partial curve, poor fit]
22 | N#C/C(=C\C1=C(N2CCOCC2)C(=C\c2ccc(Cl)cc2)/CC1)C(=O)Nc1ccccc1F | inconclusive: 10.4 µM [inhibitor, single point]
23 | Cc1ccccc1Nc1nnc(SCC(=O)c2c(N)n(C)c(=O)n(C)c2=O)s1 | inconclusive: 2.62 µM [inhibitor, full curve]
24 | Cc1c(C(=O)N2CCC3(CC2)OCCO3)oc2ccc(S(=O)(=O)N3CCOCC3)cc12 | inconclusive: 0.185 µM [inhibitor, full curve, poor fit]

3 compounds picked at random from those above, as already listed:
Row | Structure (SMILES) | Potency
22 | N#C/C(=C\C1=C(N2CCOCC2)C(=C\c2ccc(Cl)cc2)/CC1)C(=O)Nc1ccccc1F | inconclusive: 10.4 µM [inhibitor, single point]
16 | Cc1c(C(=O)N2CCN(C3CCS(=O)(=O)C3)CC2)oc2c(F)cccc12 (stereo not drawn) | inconclusive: 0.0026 µM [inhibitor, full curve, poor fit]
2 | COc1ccccc1Nc1nc(-c2sc(NC(=O)c3cccc(Cl)c3)nc2C)cs1 | active: 9.28 µM

The list continues.

Row | Structure (SMILES) | Potency
25 | O=S(=O)(NN1CCOCC1)c1cc(Cl)cc(Cl)c1O | active: 1.65 µM
26 | COc1ccccc1C(=O)Nc1cc2ccccc2oc1=O | inactive
27 | Cc1ccccc1NC(=O)c1ccco1 | inconclusive: 8.28 µM [inhibitor, partial curve]
28 | COc1cc(/C=N/Nc2nc(=O)[nH]nc2C)ccc1O | inconclusive: 0.117 µM [inhibitor, full curve, poor fit]
29 | O=C(NCc1cccc(Cl)c1)c1ccc2ccccc2n1 | inactive
30 | COc1cc(O)c(C(CCN2CCCCC2)c2ccc3c(c2)OCO3)c(OC)c1 (stereo not drawn) | active: 0.465 µM
31 | CNC(=S)N1N=C(c2ccc(Br)cc2)CC1c1ccc(OC)cc1 (stereo not drawn) | active: 10.4 µM
32 | CCCOc1ccc(-c2c(C(=O)N/N=C(\C)c3cccs3)nnn2-c2nonc2N)cc1 | inconclusive: 3.7 µM [inhibitor, partial curve]
33 | CCc1ccc(NC(=S)N(CCOC)C2CCN(C(C)=O)CC2)cc1 | inconclusive: 2.33 µM [inhibitor, partial curve]
34 | Cc1cnn(-c2cc(N/N=C/c3cccc(F)c3)ncn2)c1 | active: 1.85 µM
35 | CC(NC(=O)CN1C(=O)COc2ccccc21)c1ccccc1 (stereo not drawn) | inconclusive: 10.4 µM [inhibitor, single point]
36 | Cc1nnc(OCc2nc3ccccc3n2C)c2ccccc12 | inactive
37 | Cc1cnc(C(=O)N2CCCC(N3CCN(c4cccc(C(F)(F)F)c4)CC3)C2)cn1 (stereo not drawn) | inconclusive: 18.5 µM [inhibitor, single point]
38 | COc1ccc(C(c2nnnn2Cc2ccc(F)cc2)N2CCN(c3ccccc3)CC2)cc1 (stereo not drawn) | inconclusive: 5.86 µM [inhibitor, partial curve]
39 | CC(=O)OCC(=O)Nc1ccccc1OC(F)F | inactive
40 | Cc1ccc(S(=O)(=O)N2CCCCC2)cc1C(=O)OC(C)C(=O)NCC1CCCCC1 (stereo not drawn) | inconclusive: 0.657 µM [inhibitor, full curve, poor fit]
41 | O=C(Nc1nnc(-c2ccco2)o1)c1cccc(Cl)c1 | inconclusive: 14.7 µM [inhibitor, single point]
42 | O=C(O)c1ccccc1C(=O)N1CCN(C(=O)c2ccccc2Cl)CC1 | inconclusive: 2.62 µM [inhibitor, single point]
43 | C[n+]1cccc2ccc3c(c21)OC(N)=C(C#N)C3c1ccccc1 (stereo not drawn) | active: 7.38 µM
44 | Cc1cc[n+](CC(=O)c2ccc(NC(=O)c3ccccc3)cc2)c2ccccc12 | inconclusive: 11.7 µM [inhibitor, single point]
45 | O=S(=O)(c1ccc2ccccc2c1)N1CCNCC1 | inconclusive: 14.7 µM [inhibitor, partial curve, poor fit]
46 | COc1ccc(CCn2c(C)c(C(C)=O)c(C(C)=O)c2C)cc1OC | inconclusive: 18.5 µM [inhibitor, single point]
47 | O=C(Cc1ccccc1[N+](=O)[O-])N1CCN(c2ccc(F)cc2)CC1 | inactive
48 | Cc1ccccc1C(=O)NNC1CC(=O)N(c2ccc3c(c2)OCCO3)C1=O (stereo not drawn) | inactive
